Results on three molecules are retold here after doi:10.1101/102442.

The chains behind the UniProt entries cited, without tags or fusion partners.
UniProt Q6WKZ8, whole entry: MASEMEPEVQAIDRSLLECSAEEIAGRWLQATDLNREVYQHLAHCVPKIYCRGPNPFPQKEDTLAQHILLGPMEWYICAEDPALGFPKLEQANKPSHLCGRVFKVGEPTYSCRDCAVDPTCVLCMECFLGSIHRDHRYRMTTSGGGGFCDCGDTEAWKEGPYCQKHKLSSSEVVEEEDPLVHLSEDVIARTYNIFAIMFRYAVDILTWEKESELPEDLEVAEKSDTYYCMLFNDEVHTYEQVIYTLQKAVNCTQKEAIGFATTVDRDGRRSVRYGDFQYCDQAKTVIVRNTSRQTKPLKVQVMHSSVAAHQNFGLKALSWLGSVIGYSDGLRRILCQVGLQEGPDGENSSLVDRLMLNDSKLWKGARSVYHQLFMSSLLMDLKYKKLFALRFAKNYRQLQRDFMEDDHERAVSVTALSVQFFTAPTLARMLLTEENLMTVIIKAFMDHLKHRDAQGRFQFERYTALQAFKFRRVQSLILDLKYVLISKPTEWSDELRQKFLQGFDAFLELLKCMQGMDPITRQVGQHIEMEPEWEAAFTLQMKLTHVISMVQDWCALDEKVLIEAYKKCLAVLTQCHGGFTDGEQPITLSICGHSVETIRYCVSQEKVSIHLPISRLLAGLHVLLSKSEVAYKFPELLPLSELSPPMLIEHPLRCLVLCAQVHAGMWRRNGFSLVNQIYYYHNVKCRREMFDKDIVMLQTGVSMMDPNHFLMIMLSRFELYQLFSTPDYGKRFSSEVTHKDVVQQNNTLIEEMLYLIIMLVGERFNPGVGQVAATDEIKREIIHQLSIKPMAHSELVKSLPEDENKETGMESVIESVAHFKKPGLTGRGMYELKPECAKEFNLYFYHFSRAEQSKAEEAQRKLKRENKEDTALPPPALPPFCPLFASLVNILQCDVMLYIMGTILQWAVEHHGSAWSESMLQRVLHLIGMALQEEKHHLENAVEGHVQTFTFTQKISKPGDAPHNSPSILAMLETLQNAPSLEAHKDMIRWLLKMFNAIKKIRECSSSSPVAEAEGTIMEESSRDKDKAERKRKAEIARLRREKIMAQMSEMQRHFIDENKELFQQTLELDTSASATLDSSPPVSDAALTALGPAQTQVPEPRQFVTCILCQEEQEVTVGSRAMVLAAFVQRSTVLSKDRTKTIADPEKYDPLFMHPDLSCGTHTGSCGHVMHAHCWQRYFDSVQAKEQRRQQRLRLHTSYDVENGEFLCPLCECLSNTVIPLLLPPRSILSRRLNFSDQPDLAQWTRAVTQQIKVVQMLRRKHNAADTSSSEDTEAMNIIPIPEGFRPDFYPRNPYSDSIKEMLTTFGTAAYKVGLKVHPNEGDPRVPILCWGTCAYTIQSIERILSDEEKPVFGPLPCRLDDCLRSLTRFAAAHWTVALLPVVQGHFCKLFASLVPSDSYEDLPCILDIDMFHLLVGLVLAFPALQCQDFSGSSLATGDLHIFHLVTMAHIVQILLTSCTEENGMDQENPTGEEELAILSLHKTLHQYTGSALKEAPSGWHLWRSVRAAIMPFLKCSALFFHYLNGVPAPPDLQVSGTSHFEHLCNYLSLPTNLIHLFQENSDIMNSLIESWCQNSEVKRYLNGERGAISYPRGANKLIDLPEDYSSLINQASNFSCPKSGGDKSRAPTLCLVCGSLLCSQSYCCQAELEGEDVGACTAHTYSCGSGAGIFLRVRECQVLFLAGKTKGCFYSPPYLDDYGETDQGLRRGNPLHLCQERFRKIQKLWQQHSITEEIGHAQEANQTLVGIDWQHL

Test [1] deals with T1, TEX19.1-YFP (HEK293 / HEK293T cells) (mouse) (UniProt Q99MV2).
T1 sequence: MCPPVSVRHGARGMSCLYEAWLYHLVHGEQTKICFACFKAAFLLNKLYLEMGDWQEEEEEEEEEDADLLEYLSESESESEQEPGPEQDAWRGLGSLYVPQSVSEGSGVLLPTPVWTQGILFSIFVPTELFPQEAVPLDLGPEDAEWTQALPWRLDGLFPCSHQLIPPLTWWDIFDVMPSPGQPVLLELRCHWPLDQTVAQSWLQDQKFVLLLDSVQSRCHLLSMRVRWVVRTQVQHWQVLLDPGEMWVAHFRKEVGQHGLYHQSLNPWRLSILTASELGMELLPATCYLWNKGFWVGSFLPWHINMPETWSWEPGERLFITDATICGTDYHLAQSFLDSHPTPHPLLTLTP
In words: co-IP.

In test [2] the target is T2, TEX19.1-YFP (mouse ESCs) (mouse) (UniProt Q99MV2).
T2 sequence: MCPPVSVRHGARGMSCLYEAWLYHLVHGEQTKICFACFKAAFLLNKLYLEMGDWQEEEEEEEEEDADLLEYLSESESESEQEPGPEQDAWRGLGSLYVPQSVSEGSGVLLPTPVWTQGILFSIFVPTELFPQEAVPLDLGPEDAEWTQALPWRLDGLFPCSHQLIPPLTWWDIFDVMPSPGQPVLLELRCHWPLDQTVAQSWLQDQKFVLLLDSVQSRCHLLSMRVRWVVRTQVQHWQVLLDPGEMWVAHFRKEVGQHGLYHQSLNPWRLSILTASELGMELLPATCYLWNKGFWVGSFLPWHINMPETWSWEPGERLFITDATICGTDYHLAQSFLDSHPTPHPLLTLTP
The experiment in a line: co-IP.

Test [3] addresses UBR2 (endogenous, mouse ESCs) (mouse (endogenous in mouse ESCs)) (UniProt Q6WKZ8). The experiment in a line: SEC. For orientation: Size exclusion chromatography separates by hydrodynamic size, large species first.

These are yes or no findings as the source states them, for the method shown. For part of these data: Binding seen in cells or lysates may run through a third protein. Some results given as binding are weak or reduced against the parent protein; the word gives no strength. For part of these data: Where a sequence is shown, tags or fusion partners need not be part of it.

Turning to “FLAG-UBR2 (from UniProt Q6WKZ8 1-1755) (enzyme)”, in test [1], the binding result is on record as “binds”.

For “UBR2 (endogenous, mouse ESCs) (from UniProt Q6WKZ8 1-1755) (enzyme)”, in test [2], the binding result is listed as “binds”.

B1: TEX19.1 (endogenous, mouse ESCs) (protein, UniProt Q99MV2 1-351)
chain: MCPPVSVRHGARGMSCLYEAWLYHLVHGEQTKICFACFKAAFLLNKLYLEMGDWQEEEEEEEEEDADLLEYLSESESESEQEPGPEQDAWRGLGSLYVPQSVSEGSGVLLPTPVWTQGILFSIFVPTELFPQEAVPLDLGPEDAEWTQALPWRLDGLFPCSHQLIPPLTWWDIFDVMPSPGQPVLLELRCHWPLDQTVAQSWLQDQKFVLLLDSVQSRCHLLSMRVRWVVRTQVQHWQVLLDPGEMWVAHFRKEVGQHGLYHQSLNPWRLSILTASELGMELLPATCYLWNKGFWVGSFLPWHINMPETWSWEPGERLFITDATICGTDYHLAQSFLDSHPTPHPLLTLTP
As to B1, in test [3], the binding entry is on record as “binds”.
